Experimental data from US20140178935A1.
Numbering of substitutions follows the chain as printed. These are yes or no findings as the source states them, for the method shown. Some results given as binding are weak or reduced against the parent protein; the word gives no strength. Each block holds one binder with its values, some of them ahead of it.

Protein sequences, listed by entry. Tags and fused reporters are not part of them. Lines headed by an entry give the natural chain unless they say otherwise; changes in a name come on top.
UniProt Q08048: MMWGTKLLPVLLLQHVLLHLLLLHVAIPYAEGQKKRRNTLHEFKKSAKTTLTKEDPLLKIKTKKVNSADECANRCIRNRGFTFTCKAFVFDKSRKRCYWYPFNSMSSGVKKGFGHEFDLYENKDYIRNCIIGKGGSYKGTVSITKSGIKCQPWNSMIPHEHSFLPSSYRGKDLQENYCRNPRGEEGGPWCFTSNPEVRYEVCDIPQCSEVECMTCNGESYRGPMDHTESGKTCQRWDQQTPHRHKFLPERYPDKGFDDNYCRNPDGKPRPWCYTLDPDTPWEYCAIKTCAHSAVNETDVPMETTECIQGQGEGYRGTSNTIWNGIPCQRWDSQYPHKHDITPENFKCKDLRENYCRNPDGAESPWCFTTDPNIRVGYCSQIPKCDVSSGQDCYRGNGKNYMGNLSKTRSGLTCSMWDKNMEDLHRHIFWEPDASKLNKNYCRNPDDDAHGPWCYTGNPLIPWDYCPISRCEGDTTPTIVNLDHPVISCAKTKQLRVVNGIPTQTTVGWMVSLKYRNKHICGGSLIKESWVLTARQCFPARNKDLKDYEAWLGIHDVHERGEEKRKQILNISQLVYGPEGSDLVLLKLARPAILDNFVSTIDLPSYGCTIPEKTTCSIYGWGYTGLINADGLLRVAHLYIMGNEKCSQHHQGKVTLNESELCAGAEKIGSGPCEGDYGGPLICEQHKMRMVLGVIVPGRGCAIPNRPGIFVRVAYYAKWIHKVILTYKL

Biological target: recombinant mouse-human-mouse (mhm) chimeric HGF protein containing the human V495-L585 HGF sequence disposed within mouse HGF sequence (mouse-human-mouse chimera) (UniProt Q08048)
Experiment: SPR, antibody immobilized, HGF protein injected, 25 C

binding: binds
B1: HE2B8-1 (LR2B8HC + IgG1 constant region G1m(3) allotype allele 1, plus LR2B8LC + Kappa constant region Km(3) allotype allele 1) (antibody, V domains shown)
VH: QVQLVQPGAEVVKPGTSVKLSCKASGYTFTTYWMHWVNQAPGQGLEWIGEINPTNGHTNYNEKFKGKATLTVDKSTSTAYMELSSLRSEDTAVYYCARNYVGSIFDYWGQGTLLTVSS
VL: DIVMTQSPDSMAMSVGERVTLNCKASENVVSYVSWYQQKPGQSPKLLIYGASNRNTGVPDRFSGSGSATDFTLTISSVQAEDVADYHCGQSYNYPYTFGQGTKLEIKR

binding: binds
B2: HE2B8-3 (LRMR2B8HC + IgG1 constant region G1m(3) allotype allele 1, plus LR2B8LC + Kappa constant region Km(3) allotype allele 1) (antibody, V domains shown)
VH: B1 VH with V12K, N38R, E62Q, K65Q, K67R
VL: B1 VL

binding: binds
B3: HE2B8-4 (LRMR2B8HC + IgG1 constant region G1m(3) allotype allele 1, plus LRMR2B8LC + Kappa constant region Km(3) allotype allele 1) (antibody, V domains shown)
VH: B1 VH with V12K, N38R, E62Q, K65Q, K67R
VL: B1 VL with M11L, V15L, N55E, T56S

binding: binds
B4: HE2B8-2 (LR2B8HC + IgG1 constant region G1m(3) allotype allele 1, plus LRMR2B8LC + Kappa constant region Km(3) allotype allele 1) (antibody, V domains shown)
VH: B1 VH
VL: B1 VL with M11L, V15L, N55E, T56S
